The source of these data is paper doi:10.1101/2023.12.15.571360.

By UniProt entry, the sequences of proteins in these tests, tags left out.
UniProt P63104: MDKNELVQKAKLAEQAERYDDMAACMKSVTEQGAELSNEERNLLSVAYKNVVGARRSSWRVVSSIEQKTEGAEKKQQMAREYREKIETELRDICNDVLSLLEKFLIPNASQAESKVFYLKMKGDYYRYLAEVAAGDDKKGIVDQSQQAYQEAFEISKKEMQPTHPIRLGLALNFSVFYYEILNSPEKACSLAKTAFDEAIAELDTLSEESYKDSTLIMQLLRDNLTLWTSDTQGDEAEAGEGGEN

These are yes or no findings as the source states them, for the method shown. In cells and extracts the contact can be indirect. These calls come from enrichment with a bait or labelling near it, and not all partners need be listed. Tags and fused reporters may be left off the sequences shown.

The assay concerns the target GST-14-3-3ζ (UniProt P63104). Put plainly: affinity purification with mass spectrometry.

B1: Shisa7 (protein, UniProt Q8C3Q5 23-558)
chain: RPSNDTSSVAPGPLPALLAHLRRLTGALAGGGSAAGTSANATKTSPASGTGAAARAPPPAELCHGYYDVMGQYDATFNCSTGSYRFCCGTCHYRFCCEHRHMRLAQASCSNYDTPRWATTPPPLAGGAGGAGGAGGGPGPGQAGWLEGGRAGGAGGRGGEGPGGSTAYVVCGVISFALAVGVGAKVAFSKASRAPRAHREINVPRALVDILRHQAGPATRPDRARSSSLTPGLGGPDSMAPRTPKNLYNTMKPSNLDNLHYNVNSPKHHAATLDWRAMPPPSPSLHYSTLSCSRSFHNLSHLPPSYEAAVKSELNRYSSLKRLAEKDLDEAYLKRRQLEMPRGTLPLHALRRPGTGGGYRMDGWGGPEELGLAPAPNPRRVMSQEHLLGDGSRASRYEFTLPRARLVSQEHLLLSSPEALRQSREHLLSPPRSPALPPDPTTRASLAASHSNLLLGPGGPPTPLHGLPPSGLHAHHHHALHGSPQPAWMSDAGGGGGTLARRPPFQRQGTLEQLQFIPGHHLPQHLRTASKNEVTV
modifications: phosphorylated; sites not shown (Supplementary Table 2)
With B1, the binding result is on record as “binds”.

B2: Epn2 (protein, UniProt Q8CHU3 1-595)
chain: MTTSSIRRQMKNIVNNYSEAEIKVREATSNDPWGPSSSLMTEIADLTYNVVAFSEIMSMVWKRLNDHGKNWRHVYKALTLLDYLIKTGSERVAQQCRENIFAIQTLKDFQYIDRDGKDQGINVREKSKQLVALLKDEERLKVERVQALKTKERMAQVATGVGSNQITFGRGSSQPNLSTSYSEQEYGKAGGSPASYHGSTSPRVSSELEQARPQTSGEEELQLQLALAMSREVAEQSSESVQTARGSKEERLRRGDDLRLQMALEESRRDTVKVPKKKEAKACCKPGSHSQQTTLLDLMDALPSSGPVTQKTEPWSAGASANQTNPWGGTVAPSNITDPWPSFGTKPAASVDPWGVPTTASTQSVPKNSDPWAASQQPASNAGKTTDAWGAAKPSSASGSFELFSNFNGTVKDDFSEFDNLRTSKKPAESGASVPPQDSRTTSPDLFESQSLTSASSKPSSARKTPESFLGPNAALVNLDSLVTKPAPPAQSLNPFLAPGAAAPAPVNPFQVNQPQPLTLNQLRGSPVLGSSASFGSGPGVETVAPMTSVAPHSSVGASGSSLTPLGPTAMNMVGSVGIPPSAAQSTGTTNPFLL
modifications: phosphorylated; sites not shown (Supplementary Table 2)
Consider B2, for which the binding entry is listed as “binds”.

B3: Phactr1 (protein, UniProt Q2M3X8 1-580)
chain: MDYPKMDYFLDVESAHRLLDVESAQRFFYSQGAQARRATLLLPPTLMAASSEDDIDRRPIRRVRSKSDTPYLAEARISFNLGAAEEVERLAAMRSDSLVPGTHTPPIRRRSKFANLGRIFKPWKWRKKKSEKFKHTSAALERKISMRQSREELIKRGVLKEIYDKDGELSISNEDDSLENGQSLSSSQLSLPALSEMEPVPMPRDPCSYEVLQASDIMDGPDPGAPVKLPCLPVKLSPPLPPKKVLICMPVGGPELTLASYAAQKSSQQAVAQHHHTVLPSQMQHQLQYGSHGQHLPSSTGTLPMHPSGCRMIDELNKTLAMTMQRLESSEQRVPCSTSYHSSGLHSSDGITKAGPMGLPEIRQVPTVVIECDDNKENVPHEPDYEDSPCLYGREEEEEEEDEDDDASLYTSSLAMKVCRKDSLAIKLSNRPSKRELEEKNILPRQTDEERLELRQQIGTKLTRRLSQRPTAEELEQRNILKPRNEQEEQEEKREIKRRLTRKLSQRPTVEELRERKILIRFSDYVEVADAQDYDRRADKPWTRLTAADKAAIRKELNEFKSTEMEVHELSRHLTRFHRP
modifications: phosphorylated; sites not shown (Supplementary Table 2)
Consider B3, for which the binding entry is listed as “binds”.

B4: Rims1 (protein, UniProt Q99NE5 1-1463)
chain: MSSAVGPRGPRPPTVPPPMQELPDLSHLTEEERNIIMAVMDRQKEEEEKEEAMLKCVVRDMAKPAACKTPRNAESQPHQPPLNIFRCVCVPRKPSSEEGGPDRNWRLHQQFESYKEQVRKIGEEARRYQGEHKDDAPTCGICHKTKFADGCGHLCSYCRTKFCARCGGRVSLRSNNEDKVVMWVCNLCRKQQEILTKSGAWFFGSGPQQPSQDGTLSDTATGAGSEVPREKKARLQERSRSQTPLSTAAVSSQDTASHGAPLDRNKGAEPSQQALGPEQKQASRSRSEPPRERKKAPGLSEQNGKGGQKSERKRVPKSVVQPGEGTADERERKERRETRRLEKGRSQDYPDRLEKREDGRVAEDEKQRKEEEGVSTPEYTSCEDVELESESVSEKGDLDYWLDPATWHSRETSPISSHPVTWQPSKEGDRLIGRVILNKRTTMPKESGALLGLKVVGGKMTDLGRLGAFITKVKKGSLADVVGHLRAGDEVLEWNGKPLPGATNEEVYNIILESKSEPQVEIIVSRPIGDIPRIPESSHPPLESSSSSFESQKMERPSISVISPTSPGALKDAPQVLPGQLSVKLWYDKVGHQLIVNVLQATDLPPRVDGRPRNPYVKMYFLPDRSDKSKRRTKTVKKLLEPKWNQTFVYSHVHRRDFRERMLEITVWDQPRVQDEESEFLGEILIELETALLDDEPHWYKLQTHDESSLPLPQPSPFMPRRHIHGESSSKKLQRSQRISDSDISDYEVDDGIGVVPPVGYRASARESKATTLTVPEQQRTTHHRSRSVSPHRGDDQGRPRSRLPNVPLQRSLDEIHPTRRSRSPTRHHDASRSLADHRSRHAESQYSSEPDSELLMLPRAKRGRSAECLHMTSELQPSLDRARSASTNCLRPDTSLHSPERERGRWSPSLARRRPASPRIQIQHASPENDRHSRKSERSSIQKQSRKGTASDADRVLPPCLSRRGYAIPRATDQPVIRGKHTTRSRSSEHSSIRTLCSMHHLAPGGSAPPSPLLTRTHRQGSPTQSPPADTSFGSRRGRQLPQVPVRSGSIEQASLVVEERTRQMKMKVHRFKQTTGSGSSQELDHEQYSKYNIHKDQYRSCDNASAKSSDSDVSDVSAISRASSTSRLSSTSFMSEQSERPRGRISSFTPKMQGRRMGTSGRAIIKSTSVSGEIYTLEHNDGSQSDTAVGTVGAGGKKRRSSLSAKVVAIVSRRSRSTSQLSQTESGHKKLKSTIQRSTETGMAAEMRKMVRQPSRESTDGSINSYSSEGNLIFPGVRVGPDSQFSDFLDGLGPAQLVGRQTLATPAMGDIQIGMEDKKGQLEVEVIRARSLTQKPGSKSTPAPYVKVYLLENGACIAKKKTRIARKTLDPLYQQSLVFDESPQGKVLQVIVWGDYGRMDHKCFMGVAQILLEELDLSSMVIGWYKLFPPSSLVDPTLTPLTRRASQSSLESSSGPPCIRS
modifications: phosphorylated; sites not shown (Table 1, Supplementary Tables 1 and 2)
As for B4, the binding entry is “binds”.

B5: Amer2 (protein, UniProt Q8CCJ4 1-672)
chain: METGRSRGGGAAVSERGGGARAGVCGRQEQAGALAADMDSHCECAAETPAAEPPSGKINKAAFKLFKKRKSGGTMPSIFGVKNKGDGKSSGPTGMVRSRTHDGLAEVLVLEGSKKEEPPGGSDHSGARPIPGPPKPSGPGLGSLASSSVAKSHSFFSLLKKNGRSETGKGDHAEASKAGGKQKRGLKGIFSSMRWHRRDKRGKEEEEKAVRAAGPGNLVLPGSLTASLECVKEEPPRAARRPDSPGQDASRHAAGEPAGGEQAPASAESAPERICLEAGSPTGSGDQSSRGEDAEGHRREEKPGAALESGAGEVQAAEDASKTGDVPIKTVPLVDSEGGSGRASAVPDPSSVDPPSDPSADRICLMFSDVTSLKSFDSLTGCGDIIADPEEEAGPSCDKHVPGPGKPVLSKKNASVVAYQGGGEEMASPDQVDDTYLPEFWDMLSQTEDQGQGTQEGAAKAATASDIKLAPETSSDTRCGEAAKDMSSVKRRRLHRIPIESQQKEEPKHPEKEHQEGVPNSDEGYWDSTTPGPEEESISNSSSSKKVVIPRDSDSGDALCDLYVEPEASPATLPATEDPPCLSRLKPVSPGTITCPLRTPGSLLKDSKIPISIKHLSNLPSSHPVVHQQPARSEVPRTKIPVSKVLVRRVSNRGLAGTTIRAAACHDSAKKL
modifications: phosphorylated; sites not shown (Supplementary Table 2)
For B5, the binding entry is listed as “binds”.

B6: Reep3 (protein, UniProt Q99KK1 1-254)
chain: MVSWMISRAVVLVFGMLYPAYYSYKAVKTKNVKEYVRWMMYWIVFALYTVIETVADQTLAWFPLYYELKIAFVIWLLSPYTRGASLIYRKFLHPLLSSKEREIDDYIVQAKERGYETMVNFGRQGLNLAAAAAVTAAVKSQGAITERLRSFSMHDLTAIQGDEPVGHRPYQTLPEAKRKGKQATESPAYGIPLKDGSEQTDEEAEGPFSDDEMVTHKALRRSQSMKSVKTIKGRKEVRYGSLKYKVKKRPQVYF
modifications: phosphorylated; sites not shown (Supplementary Table 2)
Turning to B6, the binding entry is listed as “binds”.

B7: Reep1 (protein, UniProt Q8BGH4 1-201)
chain: MVSWIISRLVVLIFGTLYPAYYSYKAVKSKDIKEYVKWMMYWIIFALFTTAETFTDIFLCWFPFYYELKIAFVAWLLSPYTKGSSLLYRKFVHPTLSSKEKEIDDCLVQAKDRSYDALVHFGKRGLNVAATAAVMAASKGQGALSERLRSFSMQDLTTIRGDGAPAPSGPPPPGTGRSSGKHSQPKMSRSASESAGSSGTA
modifications: phosphorylated; sites not shown (Supplementary Table 2)
Consider B7, for which the binding entry is given as “binds”.
